Assay results taken from PubChem BioAssay AID504467 (National Center for Advancing Translational Sciences (NCATS), 2011).
Screen size: about 330,000 compounds; about 7,700 (2.3%) were called active. The inconclusive results got no clear call from the source; some entries with a clear call stand among them for comparison. The call rests on the fitted dose curve; in most records, active means well fitted inhibition curve with a large enough effect; inconclusive means small, poorly fitted or top-dose-only effect, or effect the other way; inactive means flat fitted curve, though single readings scatter. Where the call is inconclusive, the potency comes from a doubtful curve fit.

Test: qHTS screen for small molecules that inhibit ELG1-dependent DNA repair in human embryonic kidney (HEK293T) cells expressing luciferase-tagged ELG1; further: nearly all actives have a fitted effect of over 55% in size
Conditions: HEK293T ELG1-luciferase reporter, luminescence, 16 h, DNA damage induced by 5-fluorouridine; activity change, negative = inhibition: at 46.1 µM (top of the series)
Procedure, shortened: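 DMSO vehicle served as the neutral condition. Each well held 2,000 cells given 5-fluorouridine plus compound; after 16 hr at 37 °C/5% CO2, ONE-Glo was added and luciferase measured 30 min later.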
On the % scale 0 is the no-effect control and ±100 the full control effect; potency means the concentration at half of the fitted maximal effect.

| SMILES | activity change, negative = inhibition | Potency |
| --- | --- | --- |
| Cc1ccccc1C(=O)Nc1nnc(CC(=O)N/N=C/c2cn(Cc3ccccc3)c3ccccc23)s1 | inactive: -13.5% | – |
| CC(C)CNC(=S)N(Cc1ccco1)Cc1cc2cc3c(cc2[nH]c1=O)OCCO3 | – | active: 10.3 µM |
| COc1nc(/C=C/N(C)C)c([N+](=O)[O-])c(OC)n1 | inactive: 18.7% | – |
| CCOc1ccc(N=CC2=C(O)CC(c3ccco3)CC2=O)cc1 (stereo not drawn) | – | inconclusive: 29.1 µM [inhibitor, single point] |
| CC(C)n1c(SC2C(=O)CC(C)(C)CC2=O)nc2c1c(=O)n(C)c(=O)n2C | inactive: 2.2% | – |
| C=CCn1cc(C(=O)N2CCc3ccccc3C2)c(=O)c2cc(S(=O)(=O)N(CC)CC)ccc21 | – | inconclusive: 9.2 µM [inhibitor, partial curve] |
| FC(F)(Cl)c1nnc2ccc(Cl)nn12 | inactive: 10.4% | – |
| CC(N=Cc1cccc(O)c1O)c1ccccc1 (stereo not drawn) | inactive: -9.1% | – |
| O=C(COc1ccc2c3c(c(=O)oc2c1)CCCC3)NCCCN1CCOCC1 | inactive: 12.2% | – |
| CN(C)C(=O)CSc1cccc2cccnc12 | – | inconclusive: 18.4 µM [inhibitor, single point] |
| Nc1ccc(N=Nc2ccccc2Cl)c(N)n1 | – | inconclusive: 18.3 µM [activator, partial curve] |
| CC(C)(C)[C@H]1COC(=O)CC/C=C\C[C@H](CC(=O)N(CCO)Cc2ccccc2)C(=O)N1 | – | inconclusive: 20.6 µM [activator, partial curve, poor fit] |
| Cc1nc(SCC(=O)NNC(=O)c2cccs2)[nH]c(=O)c1C | – | inconclusive: 18.3 µM [activator, single point] |
| Cc1ccc2c(CN3C(=O)NC4(CCCCC4)C3=O)cc(=O)oc2c1C | – | inconclusive: 29.1 µM [activator, partial curve, poor fit] |
| COCCN(CCOC)c1ncc(Cl)c(C(=O)c2c(C)cc3ccccn23)n1 | – | inconclusive: 20.6 µM [inhibitor, single point] |
| Cc1ccc(C)c(NC(=O)CSc2nc3nc(-c4cccs4)cc(C(F)(F)F)c3c(=O)[nH]2)c1 | – | inconclusive: 20.6 µM [inhibitor, single point] |
| COc1ccc(Cc2nc(-c3ccc(Br)o3)no2)cc1OC | – | inconclusive: 14.6 µM [activator, partial curve] |
| C(=N\c1nc2ccccc2n1CCN1CCOCC1)/c1cccs1 | inactive: 1.15% | – |
| O=C1CCNc2cc3ccccc3cc21 | – | inconclusive: 7.31 µM [inhibitor, single point] |
| O=C(C[n+]1cc(-c2ccc(F)cc2)n2c1CCC2)c1cccs1 | – | inconclusive: 8.2 µM [activator, partial curve] |
| CCCn1nnc(NC(=O)c2ccc3ccccc3c2)n1 | – | inconclusive: 16.4 µM [activator, partial curve] |
| COc1ccc(-c2c(-c3ccccc3)n(C)c3ccccc23)cc1 | inactive: 4.92% | – |
| CC(NC(=O)C1CCC(CNS(=O)(=O)c2ccccc2)CC1)c1ccccc1 (stereo not drawn) | inactive: -1.54% | – |
| COc1ccc(-c2csc(-c3cccnc3)n2)cc1C | – | inconclusive: 10.3 µM [activator, partial curve] |
| COC(=O)c1sc2nc(-c3ccccc3)nc(N3CCN(C)CC3)c2c1C | – | inconclusive: 16.4 µM [inhibitor, single point] |

Look-ups from the entries so far.
Under activity change, negative = inhibition, CC(N=Cc1cccc(O)c1O)c1ccccc1 (stereo not drawn) has inactive: -9.1%
Under Potency, COc1ccc(Cc2nc(-c3ccc(Br)o3)no2)cc1OC has inconclusive: 14.6 µM [activator, partial curve]
Under Potency, C=CCn1cc(C(=O)N2CCc3ccccc3C2)c(=O)c2cc(S(=O)(=O)N(CC)CC)ccc21 has inconclusive: 9.2 µM [inhibitor, partial curve]
Under activity change, negative = inhibition, Cc1ccccc1C(=O)Nc1nnc(CC(=O)N/N=C/c2cn(Cc3ccccc3)c3ccccc23)s1 has inactive: -13.5%

Additional structures

| SMILES | activity change, negative = inhibition | Potency |
| --- | --- | --- |
| N#C/C(=N\O)c1nc2ccccc2s1 | inactive: -8.28% | – |
| CC(=O)N(C)c1ccc(N=C2C(=O)Nc3ccccc32)cc1 | inactive: -2.37% | – |
| COC(=O)C1CCN(C(=O)c2oc3c(Cl)cc(C)cc3c2C)CC1 | – | inconclusive: 18.3 µM [activator, partial curve] |
| C[C@H]1COC(=O)[C@H](NC(=O)OCC2c3ccccc3-c3ccccc32)C/C=C\C[C@H](CC(=O)N(CCO)Cc2ccccc2)C(=O)N1 | – | active: 25.9 µM |
| CCO[C@H]1OC(C(=O)N2CCOCC2)=C[C@@H](c2cn(C(C)=O)c3ccccc23)[C@@H]1CCCO | inactive: -2.95% | – |
| Cc1cc(NC(=O)c2ccc3c(c2)OCCO3)ccc1NC(=O)c1ccco1 | – | inconclusive: 29.1 µM [inhibitor, single point] |
| COCC(=O)Nc1nnc(Cc2ccc(OC)cc2)s1 | – | inconclusive: 23.1 µM [activator, single point] |
| O=C(Nc1nc(-c2ccc3c(c2)OCO3)cs1)c1ccncc1 | – | active: 7.08 µM |
| C1=C(c2ccccc2)CCN(c2nc3ccccc3n3cnnc23)C1 | inactive: -24.2% | – |
| N#C/C(=C\c1ccco1)Sc1nc2ccccc2s1 | – | inconclusive: 25.9 µM [activator, partial curve, poor fit] |
| O=C(Nc1cc(Br)ccc1O)c1cc(-c2cccs2)on1 | – | inconclusive: 16.4 µM [activator, partial curve] |
| CN(Cc1nc2ccccc2c(=O)[nH]1)Cc1nc2ccsc2c(=O)[nH]1 | – | inconclusive: 20.6 µM [inhibitor, single point] |
| CCc1ccccc1Nc1cc(C(=O)NCc2ccccn2)c2ccccc2n1 | – | inconclusive: 6.51 µM [activator, single point] |
| Cc1ccc(CN2CN(S(=O)(=O)c3cccs3)c3nc4ccccc4nc32)cc1 | – | inconclusive: 5.17 µM [activator, single point] |
| COc1cccc(C2=NO[C@@H]3C(=O)N(c4ccc5c(c4)OCCO5)C(=O)[C@H]23)c1OC | – | inconclusive: 20.6 µM [activator, single point] |
| O=[N+]([O-])c1cc(Oc2cccnc2)cc([N+](=O)[O-])c1 | inactive: 17.1% | – |
| Cc1ccc(/C=N/NC(=O)CN(Cc2ccccc2)S(=O)(=O)c2ccc3c(c2)OCCO3)cc1 | – | inconclusive: 25.9 µM [inhibitor, partial curve, poor fit] |
| CC(C)c1ccc(/C=C(\NC(=O)c2ccccc2)C(=O)NCCN2CCOCC2)cc1 | inactive: 4.89% | – |
| CC1=NCCN1S(=O)(=O)c1cc([N+](=O)[O-])ccc1Cl | inactive: -6.99% | – |
| CC1=NNC(=O)/C1=C\c1cn(-c2ccccc2)nc1-c1ccc(Cl)cc1 | – | active: 9.2 µM |
| COc1cc(SC)ccc1C(=O)N1CCN(Cc2ccc3c(c2)OCO3)CC1 | – | inconclusive: 0.0164 µM [activator, full curve, poor fit] |
| O=C(c1ccccc1)N1CCN(CC(O)COc2cccc3ccccc23)CC1 (stereo not drawn) | – | inconclusive: 35.5 µM [inhibitor, single point] |
| COc1ccccc1C(=O)NCCC(=O)NCc1cccnc1 | – | inconclusive: 32.6 µM [activator, partial curve, poor fit] |
| COc1cc(OC)cc(C(=O)NCCNc2nc3cc(C)cc(C)c3cc2C#N)c1 | – | active: 16.4 µM |
| Nc1ncnc(Nc2ccccc2Cl)n1 | – | inconclusive: 18.3 µM [activator, single point] |

| SMILES | activity change, negative = inhibition | Potency |
| --- | --- | --- |
| O=C(N/N=C/c1ccccn1)c1cc(-c2ccc(Cl)cc2)nc2ccccc12 | – | inconclusive: 5.8 µM [inhibitor, single point] |
| COc1ccc2oc(=Nc3ccccc3)c(-c3nc4ccccc4[nH]3)cc2c1 | – | inconclusive: 23.1 µM [activator, partial curve] |
| O=C(Nc1ccc(-c2nc3c(ccc4ccccc43)o2)cc1)c1ccco1 | – | inconclusive: 8.2 µM [activator, partial curve] |
| CCOC(=O)c1c(-c2cccs2)csc1NC(=O)c1ccncc1 | – | inconclusive: 29.1 µM [activator, single point] |
| Cc1nc2ccc(NC(=O)N3CCC(c4ccccc4)C3)cc2nc1C (stereo not drawn) | – | inconclusive: 11.2 µM [inhibitor, partial curve, poor fit] |
| S=C(NCCCN1CCOCC1)N1CCN(c2nc(-c3ccc(Cl)cc3)cs2)CC1 | inactive: 9.9% | – |
| O=C(Nc1cccn2ncnc12)c1ccc(Cl)cc1 | – | inconclusive: 18.4 µM [inhibitor, single point] |
| Cc1nc(-c2ccccc2)nc2[nH]ccc(=O)c12 | – | inconclusive: 20.6 µM [activator, partial curve] |
| Cc1ccc(NC(=O)c2ccc(Cn3cc(Br)cn3)o2)cc1 | inactive: -25.2% | – |
| Cc1cc(C)cc(OCCN2CCOCC2)c1 | inactive: 9.63% | – |
| O=C(Nc1nnc(C2=COCCO2)o1)c1ccc(Cl)cc1 | inactive: 13.4% | – |
| O=C(O)CCCCCNc1ncnc2ccc(Br)cc12 | – | inconclusive: 25.9 µM [inhibitor, single point] |
| NC(=O)c1nsc(C(=O)N(CC(=O)NCc2ccc(F)cc2)Cc2ccco2)c1N | inactive: 11.5% | – |
| CCNc1nc(SC(C)C(=O)OC)nc(N2CCOCC2)n1 (stereo not drawn) | – | inconclusive: 3.66 µM [activator, single point] |
| O=C(CN(Cc1ccc(Br)cc1)S(=O)(=O)c1ccccc1)NCc1cccnc1 | – | inconclusive: 20.6 µM [inhibitor, single point] |
| CC(C)c1ccc(/C=N/Nc2cc(N3CCOCC3)nc(N3CCOCC3)n2)cc1 | – | inconclusive: 23.1 µM [inhibitor, single point] |
| CCOC(=O)c1ccccc1NC(=O)c1cccc2c1C(=O)N(C1CCN(C(=O)OCC)CC1)C2 | – | active: 18.4 µM |
| O=C(O)c1ccc(/C=C2\SC(=S)N(Nc3ccccc3)C2=O)cc1 | inactive: 9.81% | – |
| CCc1nc(SCC(=O)N2CC(=O)Nc3ccccc32)c2c(C)c(C)sc2n1 | – | active: 23.1 µM |
| CCn1nnnc1SCC(=O)Nc1ccc2c(c1)OCO2 | – | inconclusive: 18.4 µM [activator, single point] |
| COc1ccccc1CCN1CCCC(CN(C)CC(C)(C)CO)C1 (stereo not drawn) | inactive: -4.85% | – |
| COc1cc(/C=C(\CC(=O)O)c2nc3ccccc3s2)cc(OC)c1O | inactive: -8.29% | – |
| c1ccc(-c2cc3ccccc3[nH]2)cc1 | – | inconclusive: 14.6 µM [activator, partial curve, poor fit] |
